# Results: the supplement of paper PMC8728848
# Some of the results follow.
# B1: CRT-1 (Homo sapiens), P27797 (protein)
# chain: MLLSVPLLLGLLGLAVAEPAVYFKEQFLDGDGWTSRWIESKHKSDFGKFVLSSGKFYGDEEKDKGLQTSQDARFYALSASFEPFSNKGQTLVVQFTVKHEQNIDCGGGYVKLFPNSLDQTDMHGDSEYNIMFGPDICGPGTKKVHVIFNYKGKNVLINKDIRCKDDEFTHLYTLIVRPDNTYEVKIDNSQVESGSLEDDWDFLPPKKIKDPDASKPEDWDERAKIDDPTDSKPEDWDKPEHIPDPDAKKPEDWDEEMDGEWEPPVIQNPEYKGEWKPRQIDNPDYKGTWIHPEIDNPEYSPDPSIYAYDNFGVLGLDLWQVKSGTIFDNFLITNDEAYAEEFGNETWGVTKAAEKQMKDKQDEEQRLKEEEEDKKRKEEEEAEDKEDDEDKDEDEEDEEDKEEDEEEDVPGQAKDEL
# Key:
# Assay in all cases: glycan array binding signal (z-score within array); higher = stronger binding
# Conditions in all cases: glycan notation: IUPAC condensed, linker removed
# [1] = molecular target: Gal(b1-4)GlcNAc(b1-3)Gal(b1-3)GalNAc
# How it was run: (§1)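 Glycan array binding is given as a within-array Z-score, which can be read as non-binding when negative. The arrays, 3228 of them, came from the Consortium for Functional Glycomics database and were retained only where the protein sequence was available. Z-scores were averaged across arrays of the same protein sequence at different concentrations or buffers and across linkers.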
# [2] = molecular target: Gal(b1-4)GlcNAc(b1-3)Gal(b1-3)GlcNAc
# How it was run: as §1
# [3] = molecular target: Gal(b1-4)GlcNAc(b1-3)Gal(b1-4)Glc
# How it was run: as §1
# [4] = molecular target: Gal(b1-4)GlcNAc(b1-3)Gal(b1-4)GlcNAc
# How it was run: as §1
# [5] = molecular target: Gal(b1-4)GlcNAc(b1-3)Gal(b1-4)GlcNAc(b1-2)Man(a1-3)[Gal(b1-4)GlcNAc(b1-3)Gal(b1-4)GlcNAc(b1-2)Man(a1-6)]Man(b1-4)GlcNAc(b1-4)GlcNAc
# How it was run: as §1
# [6] = molecular target: Gal(b1-4)GlcNAc(b1-3)Gal(b1-4)GlcNAc(b1-2)Man(a1-3)[Gal(b1-4)GlcNAc(b1-3)Gal(b1-4)GlcNAc(b1-2)Man(a1-6)]Man(b1-4)GlcNAc(b1-4)[Fuc(a1-6)]GlcNAc
# How it was run: as §1
# [7] = molecular target: Gal(b1-4)GlcNAc(b1-3)Gal(b1-4)GlcNAc(b1-2)[Gal(b1-4)GlcNAc(b1-3)Gal(b1-4)GlcNAc(b1-6)]Man(a1-6)[Gal(b1-4)GlcNAc(b1-3)Gal(b1-4)GlcNAc(b1-2)Man(a1-3)]Man(b1-4)GlcNAc(b1-4)GlcNAc
# How it was run: as §1
# [8] = molecular target: Gal(b1-4)GlcNAc(b1-3)Gal(b1-4)GlcNAc(b1-2)[Gal(b1-4)GlcNAc(b1-3)Gal(b1-4)GlcNAc(b1-6)]Man(a1-6)[Gal(b1-4)GlcNAc(b1-3)Gal(b1-4)GlcNAc(b1-2)Man(a1-3)]Man(b1-4)GlcNAc(b1-4)[Fuc(a1-6)]GlcNAc
# How it was run: as §1
# [9] = molecular target: Gal(b1-4)GlcNAc(b1-3)Gal(b1-4)GlcNAc(b1-3)Gal(b1-4)GlcNAc
# How it was run: as §1
# [10] = molecular target: Gal(b1-4)GlcNAc(b1-3)Gal(b1-4)GlcNAc(b1-3)Gal(b1-4)GlcNAc(b1-2)Man(a1-3)[Gal(b1-4)GlcNAc(b1-3)Gal(b1-4)GlcNAc(b1-3)Gal(b1-4)GlcNAc(b1-2)Man(a1-6)]Man(b1-4)GlcNAc(b1-4)GlcNAc
# How it was run: as §1
# [11] = molecular target: Gal(b1-4)GlcNAc(b1-3)Gal(b1-4)GlcNAc(b1-3)Gal(b1-4)GlcNAc(b1-2)Man(a1-3)[Gal(b1-4)GlcNAc(b1-3)Gal(b1-4)GlcNAc(b1-3)Gal(b1-4)GlcNAc(b1-2)Man(a1-6)]Man(b1-4)GlcNAc(b1-4)[Fuc(a1-6)]GlcNAc
# How it was run: as §1
# [12] = molecular target: Gal(b1-4)GlcNAc(b1-3)Gal(b1-4)GlcNAc(b1-3)Gal(b1-4)GlcNAc(b1-2)[Gal(b1-4)GlcNAc(b1-3)Gal(b1-4)GlcNAc(b1-3)Gal(b1-4)GlcNAc(b1-6)]Man(a1-6)[Gal(b1-4)GlcNAc(b1-3)Gal(b1-4)GlcNAc(b1-3)Gal(b1-4)GlcNAc(b1-2)Man(a1-3)]Man(b1-4)GlcNAc(b1-4)[Fuc(a1-6)]GlcNAc
# How it was run: as §1
# [13] = molecular target: Gal(b1-4)GlcNAc(b1-3)Gal(b1-4)GlcNAc(b1-3)Gal(b1-4)GlcNAc(b1-3)Gal(b1-4)GlcNAc(b1-2)Man(a1-3)[Gal(b1-4)GlcNAc(b1-3)Gal(b1-4)GlcNAc(b1-3)Gal(b1-4)GlcNAc(b1-3)Gal(b1-4)GlcNAc(b1-2)Man(a1-6)]Man(b1-4)GlcNAc(b1-4)GlcNAc
# How it was run: as §1
# [14] = molecular target: Gal(b1-4)GlcNAc(b1-3)Gal(b1-4)GlcNAc(b1-3)Gal(b1-4)GlcNAc(b1-3)Gal(b1-4)GlcNAc(b1-2)Man(a1-3)[Gal(b1-4)GlcNAc(b1-3)Gal(b1-4)GlcNAc(b1-3)Gal(b1-4)GlcNAc(b1-3)Gal(b1-4)GlcNAc(b1-2)Man(a1-6)]Man(b1-4)GlcNAc(b1-4)[Fuc(a1-6)]GlcNAc
# How it was run: as §1
# [15] = molecular target: Gal(b1-4)GlcNAc(b1-3)Gal(b1-4)GlcNAc(b1-3)Gal(b1-4)GlcNAc(b1-3)Gal(b1-4)GlcNAc(b1-2)[Gal(b1-4)GlcNAc(b1-3)Gal(b1-4)GlcNAc(b1-3)Gal(b1-4)GlcNAc(b1-3)Gal(b1-4)GlcNAc(b1-6)]Man(a1-6)[Gal(b1-4)GlcNAc(b1-3)Gal(b1-4)GlcNAc(b1-3)Gal(b1-4)GlcNAc(b1-3)Gal(b1-4)GlcNAc(b1-2)Man(a1-3)]Man(b1-4)GlcNAc(b1-4)[Fuc(a1-6)]GlcNAc
# How it was run: as §1
# [16] = molecular target: Gal(b1-4)GlcNAc(b1-3)Gal(b1-4)GlcNAc(b1-3)Gal(b1-4)GlcNAc(b1-3)Gal(b1-4)GlcNAc(b1-3)Gal(b1-4)GlcNAc(b1-2)Man(a1-3)[Gal(b1-4)GlcNAc(b1-3)Gal(b1-4)GlcNAc(b1-3)Gal(b1-4)GlcNAc(b1-3)Gal(b1-4)GlcNAc(b1-3)Gal(b1-4)GlcNAc(b1-2)Man(a1-6)]Man(b1-4)GlcNAc(b1-4)GlcNAc
# How it was run: as §1
# [17] = molecular target: Gal(b1-4)GlcNAc(b1-3)Gal(b1-4)GlcNAc(b1-3)Gal(b1-4)GlcNAc(b1-3)Gal(b1-4)GlcNAc(b1-3)Gal(b1-4)GlcNAc(b1-2)Man(a1-3)[Gal(b1-4)GlcNAc(b1-3)Gal(b1-4)GlcNAc(b1-3)Gal(b1-4)GlcNAc(b1-3)Gal(b1-4)GlcNAc(b1-3)Gal(b1-4)GlcNAc(b1-2)Man(a1-6)]Man(b1-4)GlcNAc(b1-4)[Fuc(a1-6)]GlcNAc
# How it was run: as §1
# [18] = molecular target: Gal(b1-4)GlcNAc(b1-3)Gal(b1-4)GlcNAc(b1-3)Gal(b1-4)GlcNAc(b1-3)Gal(b1-4)GlcNAc(b1-3)Gal(b1-4)GlcNAc(b1-2)[Gal(b1-4)GlcNAc(b1-3)Gal(b1-4)GlcNAc(b1-3)Gal(b1-4)GlcNAc(b1-3)Gal(b1-4)GlcNAc(b1-3)Gal(b1-4)GlcNAc(b1-6)]Man(a1-6)[Gal(b1-4)GlcNAc(b1-3)Gal(b1-4)GlcNAc(b1-3)Gal(b1-4)GlcNAc(b1-3)Gal(b1-4)GlcNAc(b1-3)Gal(b1-4)GlcNAc(b1-2)Man(a1-3)]Man(b1-4)GlcNAc(b1-4)[Fuc(a1-6)]GlcNAc
# How it was run: as §1
# [19] = molecular target: Gal(b1-4)GlcNAc(b1-3)Gal(b1-4)GlcNAc(b1-3)Gal(b1-4)GlcNAc(b1-3)Gal(b1-4)GlcNAc(b1-3)Gal(b1-4)GlcNAc(b1-3)Gal(b1-4)GlcNAc(b1-2)Man(a1-3)[Gal(b1-4)GlcNAc(b1-3)Gal(b1-4)GlcNAc(b1-3)Gal(b1-4)GlcNAc(b1-3)Gal(b1-4)GlcNAc(b1-3)Gal(b1-4)GlcNAc(b1-3)Gal(b1-4)GlcNAc(b1-2)Man(a1-6)]Man(b1-4)GlcNAc(b1-4)GlcNAc
# How it was run: as §1
# [20] = molecular target: Gal(b1-4)GlcNAc(b1-3)Gal(b1-4)GlcNAc(b1-3)GalNAc
# How it was run: as §1
# [21] = molecular target: Gal(b1-4)GlcNAc(b1-3)Gal(b1-4)GlcNAc(b1-3)[Gal(b1-4)GlcNAc(b1-3)Gal(b1-4)GlcNAc(b1-6)]GalNAc
# How it was run: as §1
# [22] = molecular target: Gal(b1-4)GlcNAc(b1-3)Gal(b1-4)GlcNAc(b1-6)[Gal(b1-3)]GalNAc
# How it was run: as §1
# [23] = molecular target: Gal(b1-4)GlcNAc(b1-3)Gal(b1-4)[Fuc(a1-3)GlcNAc(b1-6)]Gal(b1-4)Glc
# How it was run: as §1
# [24] = molecular target: Gal(b1-4)GlcNAc(b1-3)Gal(b1-4)[Fuc(a1-3)]GlcNAc(b1-3)Gal(b1-4)[Fuc(a1-3)]GlcNAc
# How it was run: as §1
# [25] = molecular target: Gal(b1-4)GlcNAc(b1-3)GalNAc
# How it was run: as §1
# [26] = molecular target: Gal(b1-4)GlcNAc(b1-3)[Fuc(a1-3)GlcNAc(b1-6)]Gal(b1-4)Glc
# How it was run: as §1
# [27] = molecular target: Gal(b1-4)GlcNAc(b1-3)[Gal(b1-4)GlcNAc(b1-6)]Gal(b1-4)GlcNAc
# How it was run: as §1
# [28] = molecular target: Gal(b1-4)GlcNAc(b1-3)[Gal(b1-4)GlcNAc(b1-6)]GalNAc
# How it was run: as §1
# [29] = molecular target: Gal(b1-4)GlcNAc(b1-3)[GlcNAc(b1-6)]Gal(b1-4)GlcNAc
# How it was run: as §1
# [30] = molecular target: Gal(b1-4)GlcNAc(b1-6)Gal(b1-4)GlcNAc
# How it was run: as §1
# [31] = molecular target: Gal(b1-4)GlcNAc(b1-6)GalNAc
# How it was run: as §1
# [32] = molecular target: Gal(b1-4)GlcNAc(b1-6)[Gal(b1-3)]GalNAc
# How it was run: as §1
# [33] = molecular target: Gal(b1-4)GlcNAc(b1-6)[Gal(b1-4)GlcNAc(b1-3)]GalNAc
# How it was run: as §1
# Gal(b1-4)GlcNAc6P = molecular target: Gal(b1-4)GlcNAc6P
# How it was run: as §1
# Gal(b1-6)Gal = molecular target: Gal(b1-6)Gal
# How it was run: as §1
# Gal3S(b1-3)GalNAc = molecular target: Gal3S(b1-3)GalNAc
# How it was run: as §1
# Gal3S(b1-3)GlcNAc = molecular target: Gal3S(b1-3)GlcNAc
# How it was run: as §1
# [34] = molecular target: Gal3S(b1-3)[Fuc(a1-4)]GlcNAc
# How it was run: as §1
binder,measurement,setting,value
B1,glycan array binding signal (z-score),[1],0.06
same,glycan array binding signal (z-score),[2],-0.342
same,glycan array binding signal (z-score),[3],-0.209
same,glycan array binding signal (z-score),[4],-0.647
same,glycan array binding signal (z-score),[5],0.311
same,glycan array binding signal (z-score),[6],1.25
same,glycan array binding signal (z-score),[7],0.691
same,glycan array binding signal (z-score),[8],0.692
same,glycan array binding signal (z-score),[9],-0.248
same,glycan array binding signal (z-score),[10],0.99
same,glycan array binding signal (z-score),[11],0.162
same,glycan array binding signal (z-score),[12],1.1
same,glycan array binding signal (z-score),[13],-0.033
same,glycan array binding signal (z-score),[14],1.79
same,glycan array binding signal (z-score),[15],1.03
same,glycan array binding signal (z-score),[16],1.75
same,glycan array binding signal (z-score),[17],1.32
same,glycan array binding signal (z-score),[18],1.36
same,glycan array binding signal (z-score),[19],0.789
same,glycan array binding signal (z-score),[20],0.352
same,glycan array binding signal (z-score),[21],0.711
same,glycan array binding signal (z-score),[22],0.617
same,glycan array binding signal (z-score),[23],-0.331
same,glycan array binding signal (z-score),[24],-0.134
same,glycan array binding signal (z-score),[25],0.162
same,glycan array binding signal (z-score),[26],-0.465
same,glycan array binding signal (z-score),[27],0.487
same,glycan array binding signal (z-score),[28],-0.095
same,glycan array binding signal (z-score),[29],-0.718
same,glycan array binding signal (z-score),[30],0.808
same,glycan array binding signal (z-score),[31],0.085
same,glycan array binding signal (z-score),[32],-0.381
same,glycan array binding signal (z-score),[33],-0.338
same,glycan array binding signal (z-score),Gal(b1-4)GlcNAc6P,-0.031
same,glycan array binding signal (z-score),Gal(b1-6)Gal,0.008
same,glycan array binding signal (z-score),Gal3S(b1-3)GalNAc,-0.188
same,glycan array binding signal (z-score),Gal3S(b1-3)GlcNAc,-0.208
same,glycan array binding signal (z-score),[34],-0.085

# 3 entries drawn at random from those above:
binder,measurement,setting,value
B1,glycan array binding signal (z-score),[27],0.487
same,glycan array binding signal (z-score),[8],0.692
same,glycan array binding signal (z-score),[34],-0.085
